Measured values as given in the supplement of paper PMC10849652.
The list shows a part of the results.

The chains behind the UniProt entries cited, without tags or fusion partners. Where a name states a change or a piece, a line headed by the entry shows the natural chain unless it says otherwise.
UniProt Q8TBB5: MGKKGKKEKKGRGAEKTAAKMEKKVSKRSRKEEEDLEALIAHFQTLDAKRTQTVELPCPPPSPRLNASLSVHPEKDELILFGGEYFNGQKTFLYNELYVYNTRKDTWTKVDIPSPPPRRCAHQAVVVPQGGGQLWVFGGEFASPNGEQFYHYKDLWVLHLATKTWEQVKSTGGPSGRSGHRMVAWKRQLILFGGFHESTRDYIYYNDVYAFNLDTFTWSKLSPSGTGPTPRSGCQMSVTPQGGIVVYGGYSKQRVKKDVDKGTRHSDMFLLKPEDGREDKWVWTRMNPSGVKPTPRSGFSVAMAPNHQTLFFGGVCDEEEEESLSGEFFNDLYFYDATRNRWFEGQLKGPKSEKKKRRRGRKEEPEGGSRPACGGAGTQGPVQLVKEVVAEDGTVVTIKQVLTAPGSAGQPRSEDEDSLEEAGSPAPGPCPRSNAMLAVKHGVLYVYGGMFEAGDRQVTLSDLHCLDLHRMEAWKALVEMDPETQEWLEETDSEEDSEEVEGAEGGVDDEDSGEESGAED
UniProt Q8N6L1: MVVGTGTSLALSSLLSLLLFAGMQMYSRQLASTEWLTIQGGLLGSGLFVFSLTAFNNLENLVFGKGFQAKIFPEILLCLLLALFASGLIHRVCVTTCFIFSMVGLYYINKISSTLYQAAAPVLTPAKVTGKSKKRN
UniProt P24043: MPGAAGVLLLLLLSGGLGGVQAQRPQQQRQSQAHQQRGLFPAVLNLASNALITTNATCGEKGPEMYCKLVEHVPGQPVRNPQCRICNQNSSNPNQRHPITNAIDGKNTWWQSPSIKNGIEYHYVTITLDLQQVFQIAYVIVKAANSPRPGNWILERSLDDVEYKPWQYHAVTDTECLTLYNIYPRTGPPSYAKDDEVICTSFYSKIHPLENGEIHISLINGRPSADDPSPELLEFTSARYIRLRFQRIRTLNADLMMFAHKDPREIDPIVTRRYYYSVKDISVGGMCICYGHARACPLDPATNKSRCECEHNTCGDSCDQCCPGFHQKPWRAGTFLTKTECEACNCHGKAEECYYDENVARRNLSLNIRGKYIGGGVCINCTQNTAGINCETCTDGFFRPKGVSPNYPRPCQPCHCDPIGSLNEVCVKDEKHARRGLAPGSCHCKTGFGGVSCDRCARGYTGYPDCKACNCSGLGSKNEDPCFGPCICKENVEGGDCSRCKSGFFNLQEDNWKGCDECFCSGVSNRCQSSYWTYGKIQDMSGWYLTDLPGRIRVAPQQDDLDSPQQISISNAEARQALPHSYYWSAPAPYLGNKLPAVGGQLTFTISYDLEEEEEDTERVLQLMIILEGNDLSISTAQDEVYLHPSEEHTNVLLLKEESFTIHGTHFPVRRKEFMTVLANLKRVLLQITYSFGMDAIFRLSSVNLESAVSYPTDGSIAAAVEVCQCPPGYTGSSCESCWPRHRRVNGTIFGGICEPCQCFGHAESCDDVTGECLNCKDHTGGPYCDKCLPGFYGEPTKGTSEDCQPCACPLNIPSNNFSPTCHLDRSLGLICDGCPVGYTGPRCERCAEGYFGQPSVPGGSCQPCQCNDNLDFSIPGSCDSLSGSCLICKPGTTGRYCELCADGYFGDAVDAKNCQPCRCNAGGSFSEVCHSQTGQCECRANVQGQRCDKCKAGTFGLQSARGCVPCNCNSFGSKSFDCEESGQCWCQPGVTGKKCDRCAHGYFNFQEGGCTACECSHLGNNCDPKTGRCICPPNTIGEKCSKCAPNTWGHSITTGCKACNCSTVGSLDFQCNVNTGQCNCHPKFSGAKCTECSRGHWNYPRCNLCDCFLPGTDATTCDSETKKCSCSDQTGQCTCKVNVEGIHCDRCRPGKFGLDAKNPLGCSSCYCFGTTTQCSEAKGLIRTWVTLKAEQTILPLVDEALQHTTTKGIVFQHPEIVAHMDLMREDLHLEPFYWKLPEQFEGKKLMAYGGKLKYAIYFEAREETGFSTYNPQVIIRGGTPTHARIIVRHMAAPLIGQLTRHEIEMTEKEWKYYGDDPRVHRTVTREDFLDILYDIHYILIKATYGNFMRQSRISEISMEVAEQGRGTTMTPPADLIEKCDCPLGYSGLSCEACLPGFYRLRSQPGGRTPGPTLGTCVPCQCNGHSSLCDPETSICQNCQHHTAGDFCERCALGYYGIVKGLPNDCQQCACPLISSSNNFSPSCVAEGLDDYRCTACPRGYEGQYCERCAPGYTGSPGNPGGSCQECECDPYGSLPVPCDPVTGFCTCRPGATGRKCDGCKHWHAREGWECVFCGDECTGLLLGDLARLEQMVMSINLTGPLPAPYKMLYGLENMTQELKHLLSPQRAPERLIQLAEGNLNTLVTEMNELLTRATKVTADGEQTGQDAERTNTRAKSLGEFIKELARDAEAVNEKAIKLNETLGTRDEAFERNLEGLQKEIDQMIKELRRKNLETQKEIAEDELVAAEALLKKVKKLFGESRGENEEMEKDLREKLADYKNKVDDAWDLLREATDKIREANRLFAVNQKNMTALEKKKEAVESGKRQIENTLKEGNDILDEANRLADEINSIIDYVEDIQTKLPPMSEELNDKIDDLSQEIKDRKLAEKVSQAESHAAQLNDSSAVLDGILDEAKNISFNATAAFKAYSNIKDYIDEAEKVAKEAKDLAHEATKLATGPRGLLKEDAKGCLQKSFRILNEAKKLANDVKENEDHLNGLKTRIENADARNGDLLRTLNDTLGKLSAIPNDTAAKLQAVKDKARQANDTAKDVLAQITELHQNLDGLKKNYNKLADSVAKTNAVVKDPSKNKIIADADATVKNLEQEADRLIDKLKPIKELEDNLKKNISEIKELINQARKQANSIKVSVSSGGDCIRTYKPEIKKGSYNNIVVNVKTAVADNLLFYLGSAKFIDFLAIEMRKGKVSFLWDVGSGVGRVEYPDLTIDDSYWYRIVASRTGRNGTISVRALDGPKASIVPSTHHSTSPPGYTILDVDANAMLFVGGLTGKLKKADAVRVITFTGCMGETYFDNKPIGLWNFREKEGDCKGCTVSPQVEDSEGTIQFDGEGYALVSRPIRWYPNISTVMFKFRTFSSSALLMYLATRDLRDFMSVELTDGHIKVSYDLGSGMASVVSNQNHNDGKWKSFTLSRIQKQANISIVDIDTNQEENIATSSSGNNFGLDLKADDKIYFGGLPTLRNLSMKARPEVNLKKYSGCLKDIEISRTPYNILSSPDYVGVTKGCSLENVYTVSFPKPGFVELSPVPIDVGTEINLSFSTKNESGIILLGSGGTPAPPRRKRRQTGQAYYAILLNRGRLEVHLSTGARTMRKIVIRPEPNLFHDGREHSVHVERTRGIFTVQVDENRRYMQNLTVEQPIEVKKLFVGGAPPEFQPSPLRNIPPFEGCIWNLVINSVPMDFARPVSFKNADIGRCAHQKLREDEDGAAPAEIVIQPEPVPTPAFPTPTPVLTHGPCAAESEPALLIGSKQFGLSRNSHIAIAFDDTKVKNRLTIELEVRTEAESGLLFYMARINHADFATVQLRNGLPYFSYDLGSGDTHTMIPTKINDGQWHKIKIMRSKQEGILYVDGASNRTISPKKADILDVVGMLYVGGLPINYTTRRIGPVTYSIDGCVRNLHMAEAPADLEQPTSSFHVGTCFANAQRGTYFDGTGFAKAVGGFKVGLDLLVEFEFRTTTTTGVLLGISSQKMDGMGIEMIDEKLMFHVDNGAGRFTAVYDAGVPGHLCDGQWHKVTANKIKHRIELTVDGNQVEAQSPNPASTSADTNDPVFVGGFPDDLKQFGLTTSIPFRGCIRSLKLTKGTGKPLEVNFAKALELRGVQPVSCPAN
UniProt Q71RC2, whole entry, looked up: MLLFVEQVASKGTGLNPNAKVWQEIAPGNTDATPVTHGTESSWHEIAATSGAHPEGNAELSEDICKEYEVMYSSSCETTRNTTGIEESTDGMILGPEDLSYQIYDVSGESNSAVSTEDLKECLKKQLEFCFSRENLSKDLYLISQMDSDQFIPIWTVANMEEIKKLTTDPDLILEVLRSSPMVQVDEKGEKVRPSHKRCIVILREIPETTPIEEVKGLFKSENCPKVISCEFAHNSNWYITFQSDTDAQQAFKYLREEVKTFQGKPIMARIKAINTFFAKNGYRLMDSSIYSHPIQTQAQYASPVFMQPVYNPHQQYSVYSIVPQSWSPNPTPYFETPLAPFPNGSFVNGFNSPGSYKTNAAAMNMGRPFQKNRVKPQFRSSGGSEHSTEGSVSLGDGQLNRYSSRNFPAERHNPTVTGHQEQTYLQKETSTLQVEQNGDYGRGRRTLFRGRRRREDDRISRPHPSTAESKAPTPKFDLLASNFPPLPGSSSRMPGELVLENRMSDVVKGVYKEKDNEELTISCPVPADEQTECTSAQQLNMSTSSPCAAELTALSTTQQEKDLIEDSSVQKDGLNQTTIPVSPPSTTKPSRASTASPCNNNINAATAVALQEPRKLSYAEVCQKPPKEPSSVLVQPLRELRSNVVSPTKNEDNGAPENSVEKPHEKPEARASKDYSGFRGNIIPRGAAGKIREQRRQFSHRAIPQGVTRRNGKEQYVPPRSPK
UniProt O00522: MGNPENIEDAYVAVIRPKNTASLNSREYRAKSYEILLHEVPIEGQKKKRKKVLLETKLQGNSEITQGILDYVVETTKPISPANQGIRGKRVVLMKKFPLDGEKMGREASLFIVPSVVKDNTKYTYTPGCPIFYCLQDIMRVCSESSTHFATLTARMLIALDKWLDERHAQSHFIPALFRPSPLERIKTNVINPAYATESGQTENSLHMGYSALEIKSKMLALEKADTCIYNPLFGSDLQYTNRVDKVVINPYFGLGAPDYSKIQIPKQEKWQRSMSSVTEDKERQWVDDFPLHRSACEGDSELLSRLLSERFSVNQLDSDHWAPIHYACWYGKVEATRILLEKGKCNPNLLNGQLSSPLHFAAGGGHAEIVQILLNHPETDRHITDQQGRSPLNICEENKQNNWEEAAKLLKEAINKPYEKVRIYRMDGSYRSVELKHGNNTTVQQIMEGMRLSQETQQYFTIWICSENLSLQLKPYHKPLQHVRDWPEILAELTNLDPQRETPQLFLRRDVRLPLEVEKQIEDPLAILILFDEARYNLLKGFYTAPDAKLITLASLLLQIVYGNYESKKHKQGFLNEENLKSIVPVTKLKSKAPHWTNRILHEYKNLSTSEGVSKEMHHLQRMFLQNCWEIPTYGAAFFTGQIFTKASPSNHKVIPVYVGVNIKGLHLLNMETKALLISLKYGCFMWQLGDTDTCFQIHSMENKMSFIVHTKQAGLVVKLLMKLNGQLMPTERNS
UniProt O43896: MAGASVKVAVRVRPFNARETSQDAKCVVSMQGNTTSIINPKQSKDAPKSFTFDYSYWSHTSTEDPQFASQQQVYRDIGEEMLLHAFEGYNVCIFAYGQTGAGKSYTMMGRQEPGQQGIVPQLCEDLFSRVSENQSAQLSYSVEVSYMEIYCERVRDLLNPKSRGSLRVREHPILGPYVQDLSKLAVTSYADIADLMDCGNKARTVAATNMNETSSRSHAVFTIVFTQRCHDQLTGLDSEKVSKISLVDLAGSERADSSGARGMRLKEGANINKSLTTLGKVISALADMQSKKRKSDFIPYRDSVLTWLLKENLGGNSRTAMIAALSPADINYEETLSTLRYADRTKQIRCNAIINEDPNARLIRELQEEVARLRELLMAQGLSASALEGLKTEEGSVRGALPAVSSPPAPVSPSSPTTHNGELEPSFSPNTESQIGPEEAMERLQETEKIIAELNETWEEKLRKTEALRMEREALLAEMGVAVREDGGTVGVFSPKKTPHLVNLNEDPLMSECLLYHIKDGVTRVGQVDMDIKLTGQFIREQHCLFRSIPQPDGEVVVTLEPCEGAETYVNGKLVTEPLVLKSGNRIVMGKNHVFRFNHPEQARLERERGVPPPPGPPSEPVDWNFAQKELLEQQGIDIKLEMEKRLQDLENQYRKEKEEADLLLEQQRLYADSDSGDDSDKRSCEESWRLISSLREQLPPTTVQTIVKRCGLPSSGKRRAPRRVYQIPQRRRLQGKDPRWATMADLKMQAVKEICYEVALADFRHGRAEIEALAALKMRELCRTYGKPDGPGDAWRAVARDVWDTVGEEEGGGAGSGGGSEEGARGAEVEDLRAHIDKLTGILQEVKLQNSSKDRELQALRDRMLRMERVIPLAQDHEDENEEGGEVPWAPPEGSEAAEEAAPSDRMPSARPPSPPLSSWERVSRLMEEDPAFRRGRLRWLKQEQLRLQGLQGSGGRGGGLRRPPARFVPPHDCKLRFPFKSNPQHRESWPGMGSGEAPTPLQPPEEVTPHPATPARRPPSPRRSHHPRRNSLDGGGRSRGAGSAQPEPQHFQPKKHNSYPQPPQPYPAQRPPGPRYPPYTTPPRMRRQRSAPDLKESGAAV

Tests used:
Test in all cases: log2 fold change, soluble protein after heating vs DMSO (PISA); higher = thermal stabilisation; K562 lysate, 10 uM; active = over 0.2 and 3.5 SD of the protein, either way, in both replicates (recomputed)
[1] = compound: CS(=O)(=O)CCNCc1ccc(-c2ccc3ncnc(Nc4ccc(OCc5cccc(F)c5)c(Cl)c4)c3c2)o1 [lapatinib]
Procedure, shortened: (§1)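 The values are log-two fold changes in thermal stability compared with solvent controls and come from duplicates. They were obtained by TMTpro 16plex LC-MS/MS, with channel sums equalised, on the supernatant after 21,000xg for 90 min. That supernatant came from crude K562 extract at 1 mg/mL protein treated with 10 μM compound for 30 min, heated for 3 min across 48°C-58°C, pooled and brought to 0.5% NP-40 at 4°C.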

[2] = compound: CS(=O)(=O)N1CCN(Cc2cc3nc(-c4cccc5[nH]ncc45)nc(N4CCOCC4)c3s2)CC1 [pictilisib]
Procedure, shortened: as §1

[3] = compound: C[C@@H](Oc1cc(-c2cnn(C3CCNCC3)c2)cnc1N)c1c(Cl)ccc(F)c1Cl [crizotinib]
Procedure, shortened: as §1

[4] = compound: C[C@H](C1=CC=C(C=C1)C(=O)NC2=C3C=CNC3=NC=C2)N
Procedure, shortened: as §1

[5] = compound: C[C@H](Nc1ncnc2nc[nH]c12)c1cc2cccc(Cl)c2c(=O)n1-c1ccccc1 [duvelisib]
Procedure, shortened: as §1

[6] = compound: Cc1cc(Nc2cc(CN3CCOCC3)c3nc(C)c(Cc4ccc(Cl)cc4F)n3n2)n[nH]1 [gandotinib]
Procedure, shortened: as §1

[7] = compound: Cc1cc(Nc2cc(N3CCN(C)CC3)nc(Sc3ccc(NC(=O)C4CC4)cc3)n2)n[nH]1 [tozasertib]
Procedure, shortened: as §1

[8] = compound: Cc1ccc(-n2nc(C(C)(C)C)cc2NC(=O)Nc2ccc(OCCN3CCOCC3)c3ccccc23)cc1 [doramapimod]
Procedure, shortened: as §1

[9] = compound: Cc1ccc(NC(=O)c2ccc(CN3CC[C@H](N(C)C)C3)c(C(F)(F)F)c2)cc1Nc1nccc(-c2cncnc2)n1 [bafetinib]
Procedure, shortened: as §1

[10] = compound: Cc1cccc(CC(=O)N2CCc3c2ccc(-c2cn(C)c4ncnc(N)c24)c3F)n1
Procedure, shortened: as §1

Measured: log2 fold change

LARP7 isoform 3 (UniProt Q4G0J3)
inactive: [1] -0.008 | [2] -0.005 | [3] -0.009 | [4] 0.009 | [5] 0.012 | [6] 0.044 | [7] -0.009 | [8] 0.032 | [9] -0.01 | [10] 0.009

KIDINS220 isoform 4 (UniProt Q9ULH0)
inactive: [1] -0.071 | [2] -0.025 | [3] -0.007 | [4] -0.032 | [5] -0.034 | [6] -0.048 | [7] 0.055 | [8] 0.026 | [9] 0.015 | [10] 0.004

KPNA3 (UniProt O00505)
inactive: [1] -0.034 | [2] -0.03 | [3] -0.012 | [4] -0.139 | [5] 0.06 | [6] 0 | [7] -0.007 | [8] -0.082 | [9] 0.037 | [10] 0.098

Retrieved one by one from the list above, two records:
LARP7 isoform 3 (UniProt Q4G0J3)
inactive: [1] -0.008 | [2] -0.005 | [3] -0.009 | [4] 0.009 | [5] 0.012 | [6] 0.044 | [7] -0.009 | [8] 0.032 | [9] -0.01 | [10] 0.009

KIDINS220 isoform 4 (UniProt Q9ULH0)
inactive: [1] -0.071 | [2] -0.025 | [3] -0.007 | [4] -0.032 | [5] -0.034 | [6] -0.048 | [7] 0.055 | [8] 0.026 | [9] 0.015 | [10] 0.004

More records follow.

KLHDC4 (UniProt Q8TBB5)
inactive: [1] -0.063 | [2] -0.03 | [3] -0.013 | [4] 0.099 | [5] 0.049 | [6] -0.082 | [7] 0.056 | [8] 0.024 | [9] 0.034 | [10] 0

LANCL2 (UniProt Q9NS86)
inactive: [1] -0.002 | [2] 0.004 | [3] -0.01 | [4] 0.057 | [5] -0.007 | [6] -0.027 | [7] -0.008 | [8] 0.003 | [9] 0.017 | [10] -0.028

KEL (UniProt P23276)
inactive: [1] -0.019 | [2] -0.034 | [3] 0.003 | [4] 0.03 | [5] 0.003 | [6] -0.002 | [7] -0.025 | [8] -0.031 | [9] -0.12 | [10] -0.03

LAMTOR5 (UniProt O43504)
inactive: [1] 0.042 | [2] -0.089 | [3] 0.019 | [4] 0.008 | [5] -0.048 | [6] -0.071 | [7] 0.028 | [8] 0.002 | [9] 0.029 | [10] -0.111

KDM6A (UniProt O15550)
inactive: [1] 0.033 | [2] 0.046 | [3] 0.003 | [4] -0.028 | [5] 0.032 | [6] 0.009 | [7] 0.01 | [8] 0.022 | [9] 0.002 | [10] 0.013

LARP1B, A0A3B3ISF0
inactive: [1] 0.04 | [2] 0.098 | [3] -0.082 | [4] 0.03 | [5] -0.017 | [6] 0 | [7] -0.023 | [8] 0.084 | [9] 0.019 | [10] -0.008

KIF2C (UniProt Q99661)
inactive: [1] 0.002 | [2] -0.003 | [3] -0.007 | [4] 0.004 | [5] 0.011 | [6] -0.051 | [7] -0.008 | [8] 0.022 | [9] 0.004 | [10] -0.002

L2HGDH (UniProt Q9H9P8)
inactive: [1] -0.023 | [2] -0.018 | [3] -0.015 | [4] -0.028 | [5] -0.024 | [6] 0.047 | [7] 0.011 | [8] -0.034 | [9] -0.06 | [10] 0.049

KRTCAP2 isoform 2 (UniProt Q8N6L1)
inactive: [1] -0.027 | [3] -0.013 | [4] -0.239 | [5] 0.006 | [6] 0.183 | [7] -0.101 | [8] 0.025 | [10] 0.077

KLHL7 (UniProt Q8IXQ5)
inactive: [1] 0.055 | [3] 0.058 | [4] -0.052 | [5] 0.037 | [6] -0.064 | [7] 0.058 | [8] -0.075 | [10] -0.067

L3MBTL4 (UniProt Q8NA19)
inactive: [1] -0.105 | [2] -0.061 | [3] -0.156 | [4] -0.081 | [6] 0.063 | [7] -0.089 | [8] 0.005 | [9] 0.007 | [10] 0.094

KIF1B isoform 2 (UniProt O60333)
inactive: [1] 0.013 | [2] -0.009 | [3] -0.021 | [4] -0.015 | [5] 0.007 | [6] -0.025 | [7] -0.021 | [8] 0.051 | [9] -0.025 | [10] 0.046

LAMA2 (UniProt P24043)
inactive: [1] 0.016 | [2] 0.069 | [4] -0.22 | [6] 0.27 | [7] -0.021 | [9] 0.092 | [10] 0.212

KHDRBS1 (UniProt Q07666)
inactive: [1] -0.035 | [2] 0.024 | [3] 0.025 | [4] 0.046 | [5] 0.005 | [6] -0.08 | [7] 0.008 | [8] -0.017 | [9] 0.039 | [10] -0.031

KLHL7 isoform 3 (UniProt Q8IXQ5)
inactive: [1] 0.054 | [3] -0.07 | [4] -0.096 | [6] 0.059 | [7] 0.009 | [8] 0.039 | [10] -0.289

L1RE1 (UniProt Q9UN81)
inactive: [1] 0.065 | [2] -0.002 | [3] 0.007 | [4] -0.041 | [5] -0.005 | [6] 0.041 | [7] -0.077 | [8] -0.007 | [9] 0.021 | [10] 0.058

LARP4 isoform 4 (UniProt Q71RC2)
inactive: [1] -0.004 | [2] -0.021 | [3] -0.008 | [4] -0.006 | [5] -0.045 | [6] -0.03 | [7] -0.008 | [8] -0.009 | [9] 0.005 | [10] 0.089

KIF1B isoform 3 (UniProt O60333)
inactive: [2] 0.059 | [3] 0.1 | [4] -0.104 | [5] -0.006 | [6] 0.264 | [7] -0.096 | [8] 0.023 | [9] -0.22 | [10] 0.343

KIAA0513 (UniProt O60268)
inactive: [1] 0.017 | [2] -0.006 | [3] -0.002 | [4] -0.009 | [5] -0.057 | [6] 0.087 | [7] -0.039 | [8] 0.06 | [9] -0.018 | [10] 0.068

KIF14 (UniProt Q15058)
inactive: [1] 0.016 | [2] -0.277 | [3] -0.053 | [4] -0.082 | [5] 0.025 | [6] -0.011 | [7] 0.002 | [8] 0.046 | [9] -0.087 | [10] 0.042

KRIT1 (UniProt O00522)
inactive: [1] -0.115 | [2] -0.058 | [3] -0.07 | [5] -0.001 | [7] -0.043 | [8] 0.016 | [9] -0.041

KIF21A (UniProt H0YI78)
inactive: [1] -0.11 | [2] 0.052 | [5] -0.013 | [9] 0.187

KIF3C (UniProt O14782)
inactive: [1] -0.172 | [3] -0.177 | [4] -0.119 | [5] 0 | [6] -0.002 | [7] -0.394 | [8] -0.031 | [10] 0.152

KYNU (UniProt Q16719)
inactive: [1] -0.014 | [2] 0.039 | [3] 0.013 | [4] -0.024 | [5] -0.057 | [6] 0.048 | [7] 0.02 | [8] 0.009 | [9] -0.012 | [10] 0.009

KLC3 isoform 3 (UniProt Q6P597)
inactive: [1] 0.075 | [2] -0.006 | [3] 0.025 | [4] 0.112 | [6] 0.083 | [7] 0.09 | [8] -0.01 | [9] 0.546 | [10] -0.078

KIF1C (UniProt O43896)
inactive: [1] 0.029 | [2] 0.022 | [3] -0.132 | [4] -0.197 | [6] 0.022 | [7] -0.154 | [8] 0 | [9] 0.007 | [10] 0.168

KLHL42 (UniProt Q9P2K6)
inactive: [1] -0.095 | [2] -0.005 | [3] 0.08 | [4] 0.073 | [5] -0.031 | [6] -0.027 | [8] -0.109 | [9] 0.11 | [10] -0.066

KRAS isoform 2 (UniProt P01116)
inactive: [1] -0.023 | [3] -0.016 | [5] -0.022 | [7] -0.043 | [8] -0.062

KSR1 (UniProt Q8IVT5)
inactive: [1] -0.107 | [2] 0.064 | [3] -0.015 | [4] 0.006 | [5] -0.026 | [6] -0.087 | [7] 0.017 | [8] -0.065 | [9] -0.038 | [10] -0.156

KIAA2013 (UniProt Q8IYS2)
inactive: [1] -0.033 | [2] -0.052 | [3] 0.074 | [4] 0.053 | [5] -0.042 | [6] -0.012 | [7] -0.034 | [8] -0.031 | [9] -0.019 | [10] -0.005
